Data set [1] is described as follows: general procedure: Fmoc solid-phase peptide synthesis; Sieber Amide resin; DCC/HOBt; DIPCDI/HOAt; DIPCDI/HOOBt; PyAOP/HOAt/DIEA for fragment condensation. To be noted: whole synthesis.
A short description of data set [2]: general procedure: Fmoc solid-phase peptide synthesis; Rink Amide MBHA resin; Sieber Amide resin; 2-chlorotrityl resin for protected fragments; DCC/HOBt; DIPCDI/HOAt; DIPCDI/HOOBt; PyAOP/HOAt/DIEA for fragment condensation. To be noted: whole synthesis.
Data set [3] in a line: general procedure: Fmoc solid-phase peptide synthesis; Rink Amide LL Resin; DCC/HOBt; DIPCDI/HOAt; DIPCDI/HOOBt; PyAOP/HOAt/DIEA for fragment condensation. The conditions noted are these: whole synthesis, scale 0.02 mmol.
Data set [4] can be described thus: general procedure: Fmoc solid-phase peptide synthesis; Rink Amide MBHA resin; DCC/HOBt; DIPCDI/HOAt; DIPCDI/HOOBt; PyAOP/HOAt/DIEA for fragment condensation. To be noted: whole synthesis.
Data set [5] is described as follows: general procedure: Fmoc solid-phase peptide synthesis; Sieber amide resin; DCC/HOBt; DIPCDI/HOAt; DIPCDI/HOOBt; PyAOP/HOAt/DIEA for fragment condensation. To be noted: whole synthesis, scale 0.02 mmol.

In data set [1] (scale 0.01 mmol), “Ac—[N(iBu)Gly^24,Cha^27,28,36,Aib^31]-PYY(23-36)” had an isolated mass of 10.9 mg. As to “tetrahydro-2H-pyran-4-ylcarbamoyl-[D-Pro^24,Pya(4)^26,Cha^27,36,Aib^28,31,Lys^30]-PYY (23-36)”, the isolated mass in data set [1] (scale 0.5 mmol) was 685 mg. In turn, “Ac-[D-Pro^24,Pya(4)^26,Cha^27,36,Aib^28,31,Lys^30]-PYY(23-36)” showed a crude mass in data set [1] (scale 0.25 mmol) of 486.6 mg. Moreover, the isolated mass in data set [2] (scale 0.75 mmol) is 744 mg. In data set [1] (scale 0.01 mmol), “Succinyl-[Acp^22, D-Pro^24, Cha^27,36, Leu(Me)^28,Lys^30,Aib^31]-PYY(22-36)” displayed an isolated mass of 11.8 mg.

As to “Ac-[D-Pro^24,Pya (4)^26,Cha^27,36,Aib^28,31,Lys(Hexyl)^30]-PYY(23-36) (RHEINLKTRQRY; cyclised or stapled)”, in data set [3], the isolated mass is on record as 2.7 mg.

In turn, “3-Carboxypropionyl-[D-Pro^24,Cha^27,28,36,Lys^30,Aib^31]-PYY(23-36)” displayed an isolated mass in data set [1] (scale 0.01 mmol) of 4.2 mg.

The substance “Tetrahydro-2H-pyran-4-yl-carbamoyl-[D-Pro^24, Cha^27,36,Leu(Me)^28,Lys^30,Aib^31]-PYY (23-36)” returned an isolated mass in data set [1] (scale 0.01 mmol) of 11.1 mg.

In data set [1] (scale 0.01 mmol), “[N(iBu)Gly^23, D-Pro^24,Cha^27,28,36,Aib^31]-PYY(23-36)” showed an isolated mass of 7.7 mg. The substance “Benzoyl-[Cha^27,28,36,Aib^31]-PYY(25-36)” yielded an isolated mass in data set [1] (scale 0.1 mmol) of 84.1 mg.

Regarding “4-Aminomethylbenzoyl-[Ala^26, Ile^28,31,Phe^36]-PYY (25-36)”, the isolated mass in data set [1] (scale 0.025 mmol) is 1.9 mg. The substance “4-Aminomethylbenzoyl-[Ala^26,28, Ile^31]-PYY(25-36)” displayed an isolated mass in data set [1] (scale 0.02 mmol) of 9.2 mg. The substance “Ac-[D-Pro^24,Iva^25,Pya(4)^26,Cha^27,36,Leu(Me)^28,Lys^30,Aib^31]-PYY (23-36)” had an isolated mass in data set [1] (scale 0.21 mmol) of 279.8 mg. The substance “4-({[imino(octylamino)methyl]amino}methyl)benzoyl-[Ala^26, Ile^28,31]-PYY(25-36)” came in with an isolated mass in data set [4] (scale 0.03 mmol) of 9.3 mg. “4-Guanidinomethylbenzoyl-[Ala^26, Ile^28,31]-PYY(25-36)”: in data set [2] (scale 0.015 mmol), the isolated mass is given as 4.4 mg. In data set [1] (scale 0.25 mmol), “(3-carboxypropyl)carbamoyl-[D-Hyp^24,Iva^25,Pya(4)^26,Cha^27,36,Leu(Me)^28,Lys^30,Aib^31]-PYY (23-36)” came in with an isolated mass of 345 mg. The substance “(Tetrahydro-2H-pyran-4-yl)carbamoyl-[Glu^23,D-Pro^24, Pya(4)^26,Cha^27,36,Aib^28,31, Lys^30]-PYY(23-36) (RHYKNLIERQRY; cyclised or stapled)” yielded an isolated mass in data set [1] (scale 0.375 mmol) of 316 mg. For “3-Carboxypropionyl-[D-Hyp^24,Iva^25,Pya(4)^26,Cha^27,36,Leu(Me)^28,Lys^30,Aib^31]-PYY (23-36)”, the isolated mass in data set [1] (scale 0.25 mmol) is on record as 217.2 mg. “Morpholinocarbonyl-[D-Pro^24,Cha^27,36,Leu (Me)^28,Lys^30,Aib^31]-PYY (23-36)”: the isolated mass in data set [1] (scale 0.01 mmol) stood at 3.9 mg.

For “carbamoyl-[Asp^23,D-Pro^24,Cha^27,28,36,Aib^31]-PYY(23-36)”, the isolated mass in data set [1] (scale 0.01 mmol) turned out to be 6.8 mg. In the case of “Ac-[D-Cha^24,Abu^26,Cha^27,28,36,Aib^31]-PYY(24-36)”, the isolated mass in data set [1] (scale 0.01 mmol) turned out to be 15.1 mg. Turning to “4-imidazolecarbonyl-[D-Hyp^24,Iva^25,Pya(4)^26,Cha^27,36,Leu(Me)^28,Lys^30,Aib^31]-PYY (23-36)”, the isolated mass in data set [1] (scale 0.5 mmol) was 365.5 mg. With “Ac-[D-Pro^24,Cha^27,28,Aib^31]-PYY(23-36)”, in data set [5], the isolated mass is on record as 1.6 mg. Consider “(Carboxymethyl)carbamoyl-[D-Pro^24,Pya(4)^26,Cha^27,36,Aib^28,31,Lys^30]-PYY (23-36) (RLRAYINLITRQRY; D-residues)”, for which the isolated mass in data set [1] (scale 0.375 mmol) was 233 mg.

In turn, “(tetrahydro-2H-pyran-4-yl)carbonyl-[D-Pro^24,Pya(4)^26,Cha^27,36,Aib^28,31,Lys^30]-PYY (23-36)” came in with an isolated mass in data set [1] (scale 0.01 mmol) of 6.6 mg. The substance “4-aminomethylbenzoyl-[Ala^26, Ile^28,31, Har^33]-PYY(25-36)” had an isolated mass in data set [4] (scale 0.025 mmol) of 2.2 mg. “Ac-[D-Pro^24,Pya(4)^26,Cha^27,36,Aib^28,31,Har^30]-PYY(23-36)” had an isolated mass in data set [3] of 4.1 mg. Same read-out and setting: in the case of “Ac-[D-Pro^24,Pya(4)^26,Cha^27,36,Aib^28,31,Lys(Ac)^30]—PYY (23-36) (LRAYINLITRQRY; D-residues)” it was 5.1 mg.

For “Ac-[D-Hyp^24,Iva^25,28,Pya(4)^26,Cha^27,36,Lys^30,Aib^31]-PYY(23-36)”, the isolated mass in data set [1] (scale 0.25 mmol) was 250.2 mg. The same measure, in the same setting: in the case of “Ac-[D-Pro^24,Pya (4)^26, Cha^27,36,Iva^28,Lys^30,Aib^31]-PYY(23-36)” it was 174.8 mg.
